Values of other authors as cited in patent US20030108484A1, “Individualization of therapy with antineoplastic agents” (McGill University, priority 2001, published 2003).
For at least one compound, name, drawing or mass did not settle the structure.

Test system: advanced prostate cancer
Details: withdrawal of the drug; cited from earlier work

CC(C)C(=O)Nc1ccc([N+](=O)[O-])c(C(F)(F)F)c1 [flutamide]
individuals with tumor regression on withdrawal: 25%
